The other results are listed elsewhere or left out.
The targets below were run with Cn1cc(-c2ccc3nnc(C(F)(F)c4ccc5ncccc5c4)n3n2)cn1 (assay: log2 fold change, soluble protein after heating vs DMSO (PISA); higher = thermal stabilisation; K562 cells, 10 uM, 30 min; active = over 0.2 and 3.5 SD of the protein, either way, in both replicates (recomputed)).
How it was run: (§1)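 Thermal stability values are relative to control samples and come from duplicates. They are expressed as log2 fold changes. For measurement, K562 cells (2×10^6 cells/mL) received 10 μM compound for 30 min, and aliquots were heated for 3 min over 48°C-58°C, pooled, and extracted at 4°C in PBS with 0.5% NP-40. Soluble protein, the supernatant after 21,000xg for 90 min, was quantified by TMTpro 16plex LC-MS/MS with equalised channel sums.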

Sequences of proteins named here, by UniProt entry; tags and fusion partners are left off. A change or cut given only in a name is not applied to a line headed by its entry.
UniProt Q96JJ3: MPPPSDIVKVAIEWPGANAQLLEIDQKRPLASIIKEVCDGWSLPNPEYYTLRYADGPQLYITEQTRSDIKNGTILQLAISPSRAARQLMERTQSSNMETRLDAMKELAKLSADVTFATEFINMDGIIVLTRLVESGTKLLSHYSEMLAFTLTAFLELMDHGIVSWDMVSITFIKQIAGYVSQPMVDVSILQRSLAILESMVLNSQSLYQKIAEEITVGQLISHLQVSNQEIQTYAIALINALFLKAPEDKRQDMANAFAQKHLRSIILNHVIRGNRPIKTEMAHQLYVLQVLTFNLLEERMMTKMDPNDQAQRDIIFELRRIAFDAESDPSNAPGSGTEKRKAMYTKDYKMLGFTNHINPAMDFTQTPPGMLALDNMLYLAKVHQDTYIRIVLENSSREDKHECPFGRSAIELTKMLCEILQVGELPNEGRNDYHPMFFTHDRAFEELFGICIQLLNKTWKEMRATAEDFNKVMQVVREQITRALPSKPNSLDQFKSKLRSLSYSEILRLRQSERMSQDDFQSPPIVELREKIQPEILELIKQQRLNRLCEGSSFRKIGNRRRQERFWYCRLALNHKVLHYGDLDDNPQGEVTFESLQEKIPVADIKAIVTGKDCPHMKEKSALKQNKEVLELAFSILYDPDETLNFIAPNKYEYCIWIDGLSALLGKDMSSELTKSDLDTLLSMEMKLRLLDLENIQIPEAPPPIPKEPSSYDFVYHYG
UniProt P32519: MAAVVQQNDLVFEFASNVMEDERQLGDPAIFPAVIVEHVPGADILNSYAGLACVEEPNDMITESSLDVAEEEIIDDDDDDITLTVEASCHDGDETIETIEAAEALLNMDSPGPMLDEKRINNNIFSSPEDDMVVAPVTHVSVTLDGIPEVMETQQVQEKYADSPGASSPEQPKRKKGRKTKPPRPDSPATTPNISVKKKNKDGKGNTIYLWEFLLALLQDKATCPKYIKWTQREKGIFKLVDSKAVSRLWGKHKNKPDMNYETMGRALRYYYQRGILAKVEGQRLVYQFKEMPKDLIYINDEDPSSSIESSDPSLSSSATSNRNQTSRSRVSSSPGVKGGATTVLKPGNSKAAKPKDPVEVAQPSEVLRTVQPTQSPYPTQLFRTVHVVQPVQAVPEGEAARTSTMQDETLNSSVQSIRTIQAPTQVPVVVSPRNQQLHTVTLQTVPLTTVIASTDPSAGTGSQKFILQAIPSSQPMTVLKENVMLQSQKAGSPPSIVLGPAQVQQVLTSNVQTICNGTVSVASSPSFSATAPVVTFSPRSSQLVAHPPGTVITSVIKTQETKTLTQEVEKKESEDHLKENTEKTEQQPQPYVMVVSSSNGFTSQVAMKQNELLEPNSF
UniProt Q6ZTU2, whole entry, looked up: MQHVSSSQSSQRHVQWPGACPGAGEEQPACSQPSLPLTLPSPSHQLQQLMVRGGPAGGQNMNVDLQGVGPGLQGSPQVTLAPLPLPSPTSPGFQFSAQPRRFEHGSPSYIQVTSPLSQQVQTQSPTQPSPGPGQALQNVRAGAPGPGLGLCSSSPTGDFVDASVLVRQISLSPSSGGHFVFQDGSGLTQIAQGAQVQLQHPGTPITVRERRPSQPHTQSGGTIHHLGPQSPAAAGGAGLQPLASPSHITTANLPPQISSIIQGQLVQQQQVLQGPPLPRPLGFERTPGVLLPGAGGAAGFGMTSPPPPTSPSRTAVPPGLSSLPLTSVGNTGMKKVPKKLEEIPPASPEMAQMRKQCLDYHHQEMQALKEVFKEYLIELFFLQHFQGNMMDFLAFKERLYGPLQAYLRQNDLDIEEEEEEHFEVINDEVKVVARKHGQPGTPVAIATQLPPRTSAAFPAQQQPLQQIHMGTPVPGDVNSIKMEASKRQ
UniProt O00418: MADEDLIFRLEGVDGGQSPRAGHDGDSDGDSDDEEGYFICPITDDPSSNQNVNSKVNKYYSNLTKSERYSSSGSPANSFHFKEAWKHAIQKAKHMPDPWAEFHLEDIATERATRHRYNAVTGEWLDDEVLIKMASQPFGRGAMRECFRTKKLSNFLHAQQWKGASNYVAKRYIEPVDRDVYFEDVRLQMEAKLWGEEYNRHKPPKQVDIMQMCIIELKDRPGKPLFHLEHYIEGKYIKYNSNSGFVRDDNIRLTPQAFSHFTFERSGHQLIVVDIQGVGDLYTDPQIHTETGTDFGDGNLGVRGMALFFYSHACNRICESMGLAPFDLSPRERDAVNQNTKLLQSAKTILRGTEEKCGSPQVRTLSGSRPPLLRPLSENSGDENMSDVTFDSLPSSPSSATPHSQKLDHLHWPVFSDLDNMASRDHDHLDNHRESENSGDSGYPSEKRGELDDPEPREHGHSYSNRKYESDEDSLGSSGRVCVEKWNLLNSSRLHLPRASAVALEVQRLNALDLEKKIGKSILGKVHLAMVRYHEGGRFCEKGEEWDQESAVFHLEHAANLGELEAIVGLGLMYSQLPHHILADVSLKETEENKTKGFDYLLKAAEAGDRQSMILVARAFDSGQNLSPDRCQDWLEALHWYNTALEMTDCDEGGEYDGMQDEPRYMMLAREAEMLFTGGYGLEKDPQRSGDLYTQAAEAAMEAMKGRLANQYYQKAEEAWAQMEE
UniProt Q9GZV4: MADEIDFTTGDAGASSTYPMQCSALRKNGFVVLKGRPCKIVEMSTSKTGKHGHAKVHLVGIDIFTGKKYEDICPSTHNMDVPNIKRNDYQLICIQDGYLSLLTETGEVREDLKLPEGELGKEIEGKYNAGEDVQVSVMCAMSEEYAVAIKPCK
UniProt Q12805: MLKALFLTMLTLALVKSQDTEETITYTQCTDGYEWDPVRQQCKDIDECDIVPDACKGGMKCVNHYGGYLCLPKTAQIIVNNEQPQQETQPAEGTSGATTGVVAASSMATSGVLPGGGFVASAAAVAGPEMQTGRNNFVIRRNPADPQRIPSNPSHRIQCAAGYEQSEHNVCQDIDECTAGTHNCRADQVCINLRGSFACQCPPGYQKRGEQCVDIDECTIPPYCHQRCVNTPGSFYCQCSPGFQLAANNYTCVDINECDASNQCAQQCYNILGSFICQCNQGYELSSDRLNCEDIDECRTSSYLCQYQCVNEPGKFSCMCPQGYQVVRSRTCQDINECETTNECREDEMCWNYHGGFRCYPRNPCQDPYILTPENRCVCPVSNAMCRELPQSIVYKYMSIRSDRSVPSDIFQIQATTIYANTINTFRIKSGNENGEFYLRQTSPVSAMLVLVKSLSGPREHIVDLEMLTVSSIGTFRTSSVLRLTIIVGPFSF
UniProt Q8TE02: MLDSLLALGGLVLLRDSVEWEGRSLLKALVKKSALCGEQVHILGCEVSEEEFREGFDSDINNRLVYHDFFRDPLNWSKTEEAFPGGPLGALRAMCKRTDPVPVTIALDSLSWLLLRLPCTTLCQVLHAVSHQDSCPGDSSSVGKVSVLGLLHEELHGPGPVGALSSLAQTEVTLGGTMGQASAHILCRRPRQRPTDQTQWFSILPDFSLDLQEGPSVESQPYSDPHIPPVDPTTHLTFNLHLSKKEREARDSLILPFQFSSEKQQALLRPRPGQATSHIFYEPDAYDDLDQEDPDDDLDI
UniProt Q9H777: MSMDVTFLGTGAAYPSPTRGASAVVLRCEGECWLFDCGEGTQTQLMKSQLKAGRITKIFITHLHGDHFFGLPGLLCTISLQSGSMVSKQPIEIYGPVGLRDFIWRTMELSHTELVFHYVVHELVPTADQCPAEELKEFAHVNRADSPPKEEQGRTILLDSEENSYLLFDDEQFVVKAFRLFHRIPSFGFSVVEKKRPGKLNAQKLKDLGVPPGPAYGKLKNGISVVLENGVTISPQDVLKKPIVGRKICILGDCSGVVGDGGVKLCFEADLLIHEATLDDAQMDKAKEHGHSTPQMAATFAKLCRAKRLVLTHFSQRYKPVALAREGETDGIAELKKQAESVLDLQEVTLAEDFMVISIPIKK
UniProt Q9Y6B2: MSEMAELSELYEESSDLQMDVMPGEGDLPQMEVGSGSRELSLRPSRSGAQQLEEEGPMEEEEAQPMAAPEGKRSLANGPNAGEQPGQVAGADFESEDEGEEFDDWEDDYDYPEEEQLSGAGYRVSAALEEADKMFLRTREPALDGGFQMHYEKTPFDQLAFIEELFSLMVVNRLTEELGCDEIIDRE
UniProt Q9H0I2: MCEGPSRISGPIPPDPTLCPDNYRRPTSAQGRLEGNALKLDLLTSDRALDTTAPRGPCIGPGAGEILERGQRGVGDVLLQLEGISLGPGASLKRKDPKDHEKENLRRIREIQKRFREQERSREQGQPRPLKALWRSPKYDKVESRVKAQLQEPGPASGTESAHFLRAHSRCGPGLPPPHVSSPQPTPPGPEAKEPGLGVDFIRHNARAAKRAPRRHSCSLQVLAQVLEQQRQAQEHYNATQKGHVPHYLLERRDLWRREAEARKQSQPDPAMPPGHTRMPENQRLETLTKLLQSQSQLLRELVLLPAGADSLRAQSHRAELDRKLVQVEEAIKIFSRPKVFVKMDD
UniProt Q9NQZ7: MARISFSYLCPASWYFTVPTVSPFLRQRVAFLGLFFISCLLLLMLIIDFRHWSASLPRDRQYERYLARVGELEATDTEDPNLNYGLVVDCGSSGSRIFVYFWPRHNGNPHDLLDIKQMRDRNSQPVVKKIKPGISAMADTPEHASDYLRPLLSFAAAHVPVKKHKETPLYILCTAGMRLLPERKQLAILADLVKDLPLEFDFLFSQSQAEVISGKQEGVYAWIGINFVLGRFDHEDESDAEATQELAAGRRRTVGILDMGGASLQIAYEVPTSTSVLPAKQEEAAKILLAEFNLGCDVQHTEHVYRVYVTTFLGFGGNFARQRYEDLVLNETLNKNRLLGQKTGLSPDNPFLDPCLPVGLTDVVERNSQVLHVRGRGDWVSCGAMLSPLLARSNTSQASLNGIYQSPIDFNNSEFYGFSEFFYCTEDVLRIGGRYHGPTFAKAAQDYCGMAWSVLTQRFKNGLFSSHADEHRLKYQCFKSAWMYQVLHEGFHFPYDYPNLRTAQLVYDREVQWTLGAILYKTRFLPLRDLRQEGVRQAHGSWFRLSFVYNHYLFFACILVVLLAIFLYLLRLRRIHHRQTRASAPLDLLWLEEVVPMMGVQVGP
UniProt Q14241: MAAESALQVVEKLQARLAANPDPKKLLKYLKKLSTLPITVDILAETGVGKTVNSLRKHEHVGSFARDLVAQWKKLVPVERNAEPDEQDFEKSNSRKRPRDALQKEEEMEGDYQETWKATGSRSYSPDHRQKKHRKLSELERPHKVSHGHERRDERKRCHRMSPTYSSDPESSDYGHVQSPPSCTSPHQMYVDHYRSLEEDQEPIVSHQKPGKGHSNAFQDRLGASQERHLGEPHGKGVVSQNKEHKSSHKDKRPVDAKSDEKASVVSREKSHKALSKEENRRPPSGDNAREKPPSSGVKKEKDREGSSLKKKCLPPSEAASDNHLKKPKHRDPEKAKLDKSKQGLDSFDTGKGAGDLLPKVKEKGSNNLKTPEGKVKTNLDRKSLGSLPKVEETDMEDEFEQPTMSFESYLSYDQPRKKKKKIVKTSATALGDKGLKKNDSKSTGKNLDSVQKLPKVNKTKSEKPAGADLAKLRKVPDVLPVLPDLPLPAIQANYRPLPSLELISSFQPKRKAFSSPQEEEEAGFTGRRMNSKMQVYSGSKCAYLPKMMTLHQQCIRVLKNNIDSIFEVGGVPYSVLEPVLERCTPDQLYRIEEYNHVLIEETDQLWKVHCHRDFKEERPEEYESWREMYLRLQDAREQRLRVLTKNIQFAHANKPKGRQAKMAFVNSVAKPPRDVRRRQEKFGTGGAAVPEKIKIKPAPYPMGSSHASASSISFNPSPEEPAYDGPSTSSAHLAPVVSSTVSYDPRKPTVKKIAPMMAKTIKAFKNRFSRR
UniProt Q14156: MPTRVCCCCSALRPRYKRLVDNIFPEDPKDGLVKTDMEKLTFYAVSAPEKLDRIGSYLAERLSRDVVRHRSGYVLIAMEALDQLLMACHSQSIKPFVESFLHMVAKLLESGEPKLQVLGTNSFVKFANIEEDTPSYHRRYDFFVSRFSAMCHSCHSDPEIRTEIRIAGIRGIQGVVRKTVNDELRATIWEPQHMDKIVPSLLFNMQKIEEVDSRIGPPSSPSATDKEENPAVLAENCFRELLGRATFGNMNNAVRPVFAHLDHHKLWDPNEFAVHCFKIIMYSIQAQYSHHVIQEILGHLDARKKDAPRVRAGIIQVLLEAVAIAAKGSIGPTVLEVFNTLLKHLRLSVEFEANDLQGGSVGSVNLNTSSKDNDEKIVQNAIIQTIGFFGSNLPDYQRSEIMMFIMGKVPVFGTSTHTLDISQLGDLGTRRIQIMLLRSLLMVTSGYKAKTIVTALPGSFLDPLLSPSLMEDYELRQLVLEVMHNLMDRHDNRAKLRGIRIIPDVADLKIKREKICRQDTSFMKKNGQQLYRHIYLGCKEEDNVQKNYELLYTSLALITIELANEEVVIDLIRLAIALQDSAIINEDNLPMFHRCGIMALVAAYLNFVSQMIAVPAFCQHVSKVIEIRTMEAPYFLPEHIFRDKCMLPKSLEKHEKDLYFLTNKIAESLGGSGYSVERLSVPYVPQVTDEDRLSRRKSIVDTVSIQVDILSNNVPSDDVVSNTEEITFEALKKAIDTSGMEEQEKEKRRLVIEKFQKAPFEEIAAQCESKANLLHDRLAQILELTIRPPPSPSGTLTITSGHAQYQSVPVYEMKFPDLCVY

| Target | log2 fold change |
| --- | --- |
| ENO3 (UniProt K7EKN2) | inactive: 0.04 |
| ELMO2 (UniProt Q96JJ3) | inactive: 0.069 |
| ELF1 (UniProt P32519) | inactive: 0.049 |
| EIF5A (UniProt I3L397) | inactive: -0.137 |
| EIF3I (UniProt Q5TFK1) | inactive: 0.169 |
| EP400P1 isoform 6 (UniProt Q6ZTU2) | inactive: -0.061 |
| EEF2K (UniProt O00418) | inactive: 0 |
| EIF5A2 (UniProt Q9GZV4) | inactive: 0.013 |
| EFEMP1 (UniProt Q12805) | inactive: -0.156 |
| EIF1B (UniProt O60739) | inactive: -0.039 |
| EFCAB2 (UniProt Q5VUJ9) | inactive: -0.019 |
| EIF4E3 (UniProt Q8N5X7) | inactive: -0.014 |

What follows are targets tested with Cn1cncc1[C@@](N)(c1ccc(Cl)cc1)c1ccc2c(c1)c(-c1cccc(Cl)c1)cc(=O)n2C [tipifarnib] in the same assay as above.
How it was run: as §1

| Target | log2 fold change |
| --- | --- |
| ELF1 (UniProt P32519) | inactive: -0.024 |
| ENTPD3 (UniProt O75355) | inactive: 0.03 |
| ELP5 isoform 2 (UniProt Q8TE02) | inactive: 0.101 |
| EIF3J isoform 2 (UniProt O75822) | inactive: 0.078 |
| EEF2K (UniProt O00418) | inactive: -0.092 |
| EFEMP1 (UniProt Q12805) | inactive: 0.086 |
| ELAC1 (UniProt Q9H777) | inactive: 0.036 |
| EID1 (UniProt Q9Y6B2) | inactive: -0.097 |
| ENKD1 (UniProt Q9H0I2) | inactive: -0.074 |
| ENTPD7 (UniProt Q9NQZ7) | inactive: 0.163 |
| ENTR1 (UniProt Q96C92) | inactive: 0.259 |

The targets below were run with FC(F)(F)c1ccc(/C=C/c2nc(COc3ccc(CCCCn4ccnn4)cc3)co2)cc1 [mubritinib] in the same assay as above.
How it was run: as §1

| Target | log2 fold change |
| --- | --- |
| EIF3J isoform 2 (UniProt O75822) | inactive: 0.1 |
| EHBP1 (UniProt Q8NDI1) | active: -0.586 |
| EEF1AKMT2 (UniProt Q5JPI9) | inactive: -0.229 |
| EP400 (UniProt Q96L91) | inactive: -0.182 |
| ELOA (UniProt Q14241) | inactive: 0.42 |
| EEF2K (UniProt O00418) | inactive: -0.371 |
| EIF5A2 (UniProt Q9GZV4) | inactive: 0.011 |
| EIF1B (UniProt O60739) | inactive: -0.053 |
| EFR3A (UniProt Q14156) | inactive: 0.204 |
| EID1 (UniProt Q9Y6B2) | inactive: 0.208 |
| EEF1D isoform 3 (UniProt P29692) | inactive: -0.014 |
| ENTPD7 (UniProt Q9NQZ7) | inactive: 0.097 |

From the supplement of paper PMC10849652
